Measured values: patent publication US20070244041A1 (Reoscience A/S, priority 2004, published 2007)

Assay: general procedure: Fmoc solid-phase peptide synthesis; TentaGel-S-Ram-Fmoc (0.22-0.31 mmol/g); preformed HOBt esters (3 eq.)
Settings: whole synthesis, relative to resin load, scale of the general procedure 1 g resin

| Substance | isolated yield [%] |
| --- | --- |
| h-PYY(3-36)-NH2 Pro-Pro 11-12 | 5 |
| h-PYY-(13-36)-K29(H-IKPEA)-NH2 | 5.5 |
